Assay results reported in the supplement of paper PMC4604168 (melanoma cell lines).
The list shows a part of the results. Many values rest on one well or one pass, so single values are uncertain.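 Imaging used 1,536-well plates; nuclei positive for cleaved PARP by antibody were divided by total DNA-stained nuclei to yield the apoptosis fraction. Doses for screening kept most cells viable, and cell lines differ markedly in resting and induced cleaved-PARP levels.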

System: CBRC034 (line from a melanoma biopsy)
Assay: cleaved PARP positive nuclei fraction relative to DMSO control; melanoma cells; higher = more apoptosis
Details: library dose: low library concentration; 72 h

Structure (SMILES)	cleaved PARP positive nuclei fraction
C=CCn1c(=O)c2cnc(Nc3ccc(N4CCN(C)CC4)cc3)nc2n1-c1cccc(C(C)(C)O)n1 + O=S(=O)(c1ccccc1)N(CC(F)(F)F)c1ccc(C(O)(C(F)(F)F)C(F)(F)F)cc1 [T0901317] (first compound 0.02 µM, partner dose 1.4 µM)	60.3%
O=C(Nc1cccc(Cl)c1)Nc1ncc(CCNc2ncnc3ccsc23)s1 + COc1cc(N2CCC(N3CCN(C)CC3)CC2)ccc1Nc1ncc(Cl)c(Nc2ccccc2S(=O)(=O)C(C)C)n1 [NVP-TAE684] (first compound 0.0008 µM, partner dose 0.08 µM)	186%
C[C@]1(c2nc3c(C(N)=O)cccc3[nH]2)CCCN1 [Veliparib] + COc1cc2ncnc(Nc3ccc(Oc4ccccc4)cc3)c2cc1OC [SrcI1] (first compound 1.4 µM, partner dose 2 µM)	77.9%
Cn1c(Nc2ccc(C(F)(F)F)cc2)nc2cc(Oc3ccnc(-c4ncc(C(F)(F)F)[nH]4)c3)ccc21 + COc1ccc(COc2ccc(Cc3cnc(N)nc3N)cc2OC)cc1 [GW2580] (first compound 0.08 µM, partner dose 1 µM)	97.2%
COCC[n+]1c2c(n(Cc3cnccn3)c1C)C(=O)c1ccccc1C2=O + COc1ccc(COc2ccc(Cc3cnc(N)nc3N)cc2OC)cc1 [GW2580] (first compound 0.0004 µM, partner dose 1 µM)	39%
Cc1ccc(NC(=O)c2cccc(N(C)C)c2)cc1NC(=O)c1ccc(O)cc1 + COC(=O)c1sccc1S(=O)(=O)Nc1ccc(Nc2ccccc2)cc1OC [GSK0660] (first compound 2 µM, partner dose 1 µM)	108%
COCC[n+]1c2c(n(Cc3cnccn3)c1C)C(=O)c1ccccc1C2=O + CC(C)CCN1c2nc(Nc3cc(F)c(O)c(F)c3)ncc2N(C)C(=O)C1C [BID1870] (first compound 0.0004 µM, partner dose 0.2 µM)	48.2%
CC(C)(C)c1cnc(CSc2cnc(NC(=O)C3CCNCC3)s2)o1 + Cc1cc([N+](=O)[O-])ccc1NS(=O)(=O)c1cc(Cl)ccc1Cl [FH535] (first compound 0.01 µM, partner dose 1 µM)	112%
Cc1ccc(NC(=O)c2cccc(N(C)C)c2)cc1NC(=O)c1ccc(O)cc1 + CCCCCCCCCCCC1=C(O)C(=O)C=C(O)C1=O [Embelin] (first compound 2 µM, partner dose 1.2 µM)	48.2%
Cc1ccc(NC(=O)c2cccc(N(C)C)c2)cc1NC(=O)c1ccc(O)cc1 + COc1cc(N2CCC(N3CCN(C)CC3)CC2)ccc1Nc1ncc(Cl)c(Nc2ccccc2S(=O)(=O)C(C)C)n1 [NVP-TAE684] (first compound 2 µM, partner dose 0.08 µM)	48.2%
Cn1cncc1[C@@](N)(c1ccc(Cl)cc1)c1ccc2c(c1)c(-c1cccc(Cl)c1)cc(=O)n2C [tipifarnib] + CCc1ccc(CCOc2ccc(CC3SC(=O)NC3=O)cc2)nc1 [pioglitazone] (first compound 0.01 µM, partner dose 2 µM)	114%
O=C(CCCCCCC(=O)Nc1ccccc1)NO [vorinostat] + COc1cc(N2CCC(N3CCN(C)CC3)CC2)ccc1Nc1ncc(Cl)c(Nc2ccccc2S(=O)(=O)C(C)C)n1 [NVP-TAE684] (first compound 0.08 µM, partner dose 0.08 µM)	57.5%
O=C(Nc1cccc(Cl)c1)Nc1ncc(CCNc2ncnc3ccsc23)s1 + COC(=O)c1sccc1S(=O)(=O)Nc1ccc(Nc2ccccc2)cc1OC [GSK0660] (first compound 0.0008 µM, partner dose 1 µM)	104%
C=CCn1c(=O)c2cnc(Nc3ccc(N4CCN(C)CC4)cc3)nc2n1-c1cccc(C(C)(C)O)n1 + CC(C)CCN1c2nc(Nc3cc(F)c(O)c(F)c3)ncc2N(C)C(=O)C1C [BID1870] (first compound 0.02 µM, partner dose 0.2 µM)	118%
CO[C@@H]1[C@H](N(C)C(=O)c2ccccc2)C[C@H]2O[C@]1(C)n1c3ccccc3c3c4c(c5c6ccccc6n2c5c31)C(=O)NC4 [Midostaurin] + O=S(=O)(c1ccccc1)N(CC(F)(F)F)c1ccc(C(O)(C(F)(F)F)C(F)(F)F)cc1 [T0901317] (first compound 0.08 µM, partner dose 1.4 µM)	44.2%
Nc1cccc2c1CN(C1CCC(=O)NC1=O)C2=O (configuration not stated) [lenalidomide] + COC(=O)c1sccc1S(=O)(=O)Nc1ccc(Nc2ccccc2)cc1OC [GSK0660] (first compound 1 µM, partner dose 1 µM)	77.8%

A second format for part of the listing above.
Structure (SMILES) | cleaved PARP positive nuclei fraction
C[C@]1(c2nc3c(C(N)=O)cccc3[nH]2)CCCN1 [Veliparib] + COc1cc2ncnc(Nc3ccc(Oc4ccccc4)cc3)c2cc1OC [SrcI1] (first compound 1.4 µM, partner dose 2 µM) | 77.9%
Cn1c(Nc2ccc(C(F)(F)F)cc2)nc2cc(Oc3ccnc(-c4ncc(C(F)(F)F)[nH]4)c3)ccc21 + COc1ccc(COc2ccc(Cc3cnc(N)nc3N)cc2OC)cc1 [GW2580] (first compound 0.08 µM, partner dose 1 µM) | 97.2%
COCC[n+]1c2c(n(Cc3cnccn3)c1C)C(=O)c1ccccc1C2=O + COc1ccc(COc2ccc(Cc3cnc(N)nc3N)cc2OC)cc1 [GW2580] (first compound 0.0004 µM, partner dose 1 µM) | 39%
Cc1ccc(NC(=O)c2cccc(N(C)C)c2)cc1NC(=O)c1ccc(O)cc1 + COC(=O)c1sccc1S(=O)(=O)Nc1ccc(Nc2ccccc2)cc1OC [GSK0660] (first compound 2 µM, partner dose 1 µM) | 108%
COCC[n+]1c2c(n(Cc3cnccn3)c1C)C(=O)c1ccccc1C2=O + CC(C)CCN1c2nc(Nc3cc(F)c(O)c(F)c3)ncc2N(C)C(=O)C1C [BID1870] (first compound 0.0004 µM, partner dose 0.2 µM) | 48.2%
CC(C)(C)c1cnc(CSc2cnc(NC(=O)C3CCNCC3)s2)o1 + Cc1cc([N+](=O)[O-])ccc1NS(=O)(=O)c1cc(Cl)ccc1Cl [FH535] (first compound 0.01 µM, partner dose 1 µM) | 112%
Cc1ccc(NC(=O)c2cccc(N(C)C)c2)cc1NC(=O)c1ccc(O)cc1 + CCCCCCCCCCCC1=C(O)C(=O)C=C(O)C1=O [Embelin] (first compound 2 µM, partner dose 1.2 µM) | 48.2%
Cc1ccc(NC(=O)c2cccc(N(C)C)c2)cc1NC(=O)c1ccc(O)cc1 + COc1cc(N2CCC(N3CCN(C)CC3)CC2)ccc1Nc1ncc(Cl)c(Nc2ccccc2S(=O)(=O)C(C)C)n1 [NVP-TAE684] (first compound 2 µM, partner dose 0.08 µM) | 48.2%
Cn1cncc1[C@@](N)(c1ccc(Cl)cc1)c1ccc2c(c1)c(-c1cccc(Cl)c1)cc(=O)n2C [tipifarnib] + CCc1ccc(CCOc2ccc(CC3SC(=O)NC3=O)cc2)nc1 [pioglitazone] (first compound 0.01 µM, partner dose 2 µM) | 114%

Remaining list, next part

Structure (SMILES)	cleaved PARP positive nuclei fraction
O=C(Nc1cccc(Cl)c1)Nc1ncc(CCNc2ncnc3ccsc23)s1 + CCc1ccc(CCOc2ccc(CC3SC(=O)NC3=O)cc2)nc1 [pioglitazone] (first compound 0.0008 µM, partner dose 2 µM)	86.9%
COCC[n+]1c2c(n(Cc3cnccn3)c1C)C(=O)c1ccccc1C2=O + O=c1cc(-c2cccc3c2Sc2ccccc2S3)oc(N2CCOCC2)c1 [KU55933] (first compound 0.0004 µM, partner dose 1 µM)	44.1%
Nc1cccc2c1CN(C1CCC(=O)NC1=O)C2=O (configuration not stated) [lenalidomide] + COc1ccc(-c2ccc3c(N4CCOCC4)nc(N4C[C@@H](C)O[C@@H](C)C4)nc3n2)cc1CO [KU0063794] (first compound 1 µM, partner dose 0.02 µM)	99.3%
NC(=O)Nc1cc(-c2cccc(F)c2)sc1C(=O)N[C@H]1CCCNC1 + Cn1cc(/C=C2\C(=O)Nc3cccnc32)c2ccccc21 [GW441756] (first compound 0.02 µM, partner dose 0.4 µM)	73.8%
COc1cc(Nc2ncc(F)c(Nc3ccc4c(n3)NC(=O)C(C)(C)O4)n2)cc(OC)c1OC [Tamatinib] + COc1cc(N2CCC(N3CCN(C)CC3)CC2)ccc1Nc1ncc(Cl)c(Nc2ccccc2S(=O)(=O)C(C)C)n1 [NVP-TAE684] (first compound 0.4 µM, partner dose 0.08 µM)	132%
NC(=O)Nc1cc(-c2cccc(F)c2)sc1C(=O)N[C@H]1CCCNC1 + CCN(CC)CCCCNc1ncc2cc(-c3cc(OC)cc(OC)c3)c(NC(=O)NC(C)(C)C)nc2n1 [PD173074] (first compound 0.02 µM, partner dose 0.1 µM)	127%
O=C(CCCCCCC(=O)Nc1ccccc1)NO [vorinostat] + CCCCCCCCCCCC1=C(O)C(=O)C=C(O)C1=O [Embelin] (first compound 0.08 µM, partner dose 1.2 µM)	47.7%
O=C(Nc1cccc(Cl)c1)Nc1ncc(CCNc2ncnc3ccsc23)s1 + COc1ccc(-c2ccc3c(N4CCOCC4)nc(N4C[C@@H](C)O[C@@H](C)C4)nc3n2)cc1CO [KU0063794] (first compound 0.0008 µM, partner dose 0.02 µM)	61%
Cc1nc(Nc2ncc(C(=O)Nc3c(C)cccc3Cl)s2)cc(N2CCN(CCO)CC2)n1 [dasatanib] + CCN(CC)CCCCNc1ncc2cc(-c3cc(OC)cc(OC)c3)c(NC(=O)NC(C)(C)C)nc2n1 [PD173074] (first compound 0.004 µM, partner dose 0.1 µM)	138%
CC1(C)NC(=O)N(c2ccc([N+](=O)[O-])c(C(F)(F)F)c2)C1=O [nilutamide] + COc1ccc(COc2ccc(Cc3cnc(N)nc3N)cc2OC)cc1 [GW2580] (first compound 1 µM, partner dose 1 µM)	95.9%
COCC[n+]1c2c(n(Cc3cnccn3)c1C)C(=O)c1ccccc1C2=O + CCc1ccc(CCOc2ccc(CC3SC(=O)NC3=O)cc2)nc1 [pioglitazone] (first compound 0.0004 µM, partner dose 2 µM)	100%
O=C(CCCCCCC(=O)Nc1ccccc1)NO [vorinostat] + COc1ccc(-c2ccc3c(N4CCOCC4)nc(N4C[C@@H](C)O[C@@H](C)C4)nc3n2)cc1CO [KU0063794] (first compound 0.08 µM, partner dose 0.02 µM)	65.8%
COc1cc(Nc2ncc(F)c(Nc3ccc4c(n3)NC(=O)C(C)(C)O4)n2)cc(OC)c1OC [Tamatinib] + O=S(=O)(c1ccccc1)N(CC(F)(F)F)c1ccc(C(O)(C(F)(F)F)C(F)(F)F)cc1 [T0901317] (first compound 0.4 µM, partner dose 1.4 µM)	96.6%
NC(=O)Nc1cc(-c2cccc(F)c2)sc1C(=O)N[C@H]1CCCNC1 + O=S(=O)(c1ccccc1)N(CC(F)(F)F)c1ccc(C(O)(C(F)(F)F)C(F)(F)F)cc1 [T0901317] (first compound 0.02 µM, partner dose 1.4 µM)	178%
Cn1nnc2c(C(N)=O)ncn2c1=O [temozolomide] + COc1ccc(-c2ccc3c(N4CCOCC4)nc(N4C[C@@H](C)O[C@@H](C)C4)nc3n2)cc1CO [KU0063794] (first compound 2 µM, partner dose 0.02 µM)	38.2%
Nc1cccc2c1CN(C1CCC(=O)NC1=O)C2=O (configuration not stated) [lenalidomide] + c1cc(-c2cnn3cc(-c4ccc(OCCN5CCCCC5)cc4)cnc23)ccn1 [Dorsomorphin] (first compound 1 µM, partner dose 0.4 µM)	89.1%
